Source: PMC13225845
Results are given in words; binding and its absence hold for the method and conditions named. Binding seen in cells or lysates may run through a third protein. Some results given as binding are weak or reduced against the parent protein; the word gives no strength.

Sequences of proteins named here, by UniProt entry; tags and fusion partners are left off.
UniProt Q9Y7K2: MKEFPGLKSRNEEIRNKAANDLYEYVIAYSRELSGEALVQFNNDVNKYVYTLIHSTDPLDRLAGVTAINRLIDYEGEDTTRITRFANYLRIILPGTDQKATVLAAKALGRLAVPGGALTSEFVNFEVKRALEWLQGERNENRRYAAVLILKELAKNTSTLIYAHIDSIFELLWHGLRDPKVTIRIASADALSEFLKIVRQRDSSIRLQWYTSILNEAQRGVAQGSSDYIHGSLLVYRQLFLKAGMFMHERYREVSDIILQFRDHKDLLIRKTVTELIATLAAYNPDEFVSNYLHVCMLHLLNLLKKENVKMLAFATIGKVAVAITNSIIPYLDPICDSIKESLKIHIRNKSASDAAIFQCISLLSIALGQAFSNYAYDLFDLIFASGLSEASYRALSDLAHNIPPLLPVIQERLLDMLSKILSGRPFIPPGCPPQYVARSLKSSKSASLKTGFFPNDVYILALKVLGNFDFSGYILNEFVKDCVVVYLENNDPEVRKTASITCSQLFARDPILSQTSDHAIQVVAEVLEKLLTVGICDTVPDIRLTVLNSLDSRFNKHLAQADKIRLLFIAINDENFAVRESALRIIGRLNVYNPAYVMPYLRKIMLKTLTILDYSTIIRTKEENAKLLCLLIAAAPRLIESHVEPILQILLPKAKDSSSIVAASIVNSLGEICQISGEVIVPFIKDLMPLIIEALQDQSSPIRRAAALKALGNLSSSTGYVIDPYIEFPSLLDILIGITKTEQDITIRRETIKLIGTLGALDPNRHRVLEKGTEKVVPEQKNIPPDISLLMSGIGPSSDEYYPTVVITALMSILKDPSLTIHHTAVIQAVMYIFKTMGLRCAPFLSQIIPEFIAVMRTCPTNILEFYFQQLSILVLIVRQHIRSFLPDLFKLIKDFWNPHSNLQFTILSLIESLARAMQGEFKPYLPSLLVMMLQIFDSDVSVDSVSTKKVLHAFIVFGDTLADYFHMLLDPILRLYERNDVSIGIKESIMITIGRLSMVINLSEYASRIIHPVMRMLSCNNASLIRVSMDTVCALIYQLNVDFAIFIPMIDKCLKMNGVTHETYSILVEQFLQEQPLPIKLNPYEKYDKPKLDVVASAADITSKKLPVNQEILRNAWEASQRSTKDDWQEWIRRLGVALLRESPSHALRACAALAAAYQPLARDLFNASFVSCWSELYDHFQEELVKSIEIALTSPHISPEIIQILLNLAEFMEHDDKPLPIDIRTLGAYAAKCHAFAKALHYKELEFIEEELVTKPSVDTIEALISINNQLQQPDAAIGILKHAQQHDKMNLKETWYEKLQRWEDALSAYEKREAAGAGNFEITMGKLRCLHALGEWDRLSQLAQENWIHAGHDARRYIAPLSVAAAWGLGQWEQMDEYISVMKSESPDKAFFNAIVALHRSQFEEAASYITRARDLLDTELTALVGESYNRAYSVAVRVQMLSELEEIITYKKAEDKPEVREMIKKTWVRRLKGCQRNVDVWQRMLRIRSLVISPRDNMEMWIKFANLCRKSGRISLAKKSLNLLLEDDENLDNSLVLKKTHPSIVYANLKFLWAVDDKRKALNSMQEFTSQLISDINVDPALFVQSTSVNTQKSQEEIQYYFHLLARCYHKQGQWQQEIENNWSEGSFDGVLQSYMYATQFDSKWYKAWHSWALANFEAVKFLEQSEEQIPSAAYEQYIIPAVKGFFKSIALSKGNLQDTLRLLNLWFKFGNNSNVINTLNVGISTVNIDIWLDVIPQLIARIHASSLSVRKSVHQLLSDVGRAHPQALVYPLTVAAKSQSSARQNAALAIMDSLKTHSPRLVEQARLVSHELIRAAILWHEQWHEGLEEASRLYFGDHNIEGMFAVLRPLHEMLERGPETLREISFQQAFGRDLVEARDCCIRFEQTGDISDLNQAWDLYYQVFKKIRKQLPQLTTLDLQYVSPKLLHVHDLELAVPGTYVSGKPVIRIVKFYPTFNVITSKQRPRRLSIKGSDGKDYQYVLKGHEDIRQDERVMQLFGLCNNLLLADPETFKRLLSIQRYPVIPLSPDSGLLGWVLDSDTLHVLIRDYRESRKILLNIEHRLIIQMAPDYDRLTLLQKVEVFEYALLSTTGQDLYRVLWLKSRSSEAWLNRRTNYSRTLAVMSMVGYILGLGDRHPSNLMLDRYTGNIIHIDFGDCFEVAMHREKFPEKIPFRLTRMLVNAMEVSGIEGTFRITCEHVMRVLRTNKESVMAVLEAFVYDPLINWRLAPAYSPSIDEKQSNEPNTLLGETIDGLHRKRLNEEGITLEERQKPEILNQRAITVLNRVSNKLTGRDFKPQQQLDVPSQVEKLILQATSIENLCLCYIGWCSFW

T1: Rad21-PK (cohesin kleisin subunit Rad21) (S. pombe) (UniProt P30776)
T1 sequence: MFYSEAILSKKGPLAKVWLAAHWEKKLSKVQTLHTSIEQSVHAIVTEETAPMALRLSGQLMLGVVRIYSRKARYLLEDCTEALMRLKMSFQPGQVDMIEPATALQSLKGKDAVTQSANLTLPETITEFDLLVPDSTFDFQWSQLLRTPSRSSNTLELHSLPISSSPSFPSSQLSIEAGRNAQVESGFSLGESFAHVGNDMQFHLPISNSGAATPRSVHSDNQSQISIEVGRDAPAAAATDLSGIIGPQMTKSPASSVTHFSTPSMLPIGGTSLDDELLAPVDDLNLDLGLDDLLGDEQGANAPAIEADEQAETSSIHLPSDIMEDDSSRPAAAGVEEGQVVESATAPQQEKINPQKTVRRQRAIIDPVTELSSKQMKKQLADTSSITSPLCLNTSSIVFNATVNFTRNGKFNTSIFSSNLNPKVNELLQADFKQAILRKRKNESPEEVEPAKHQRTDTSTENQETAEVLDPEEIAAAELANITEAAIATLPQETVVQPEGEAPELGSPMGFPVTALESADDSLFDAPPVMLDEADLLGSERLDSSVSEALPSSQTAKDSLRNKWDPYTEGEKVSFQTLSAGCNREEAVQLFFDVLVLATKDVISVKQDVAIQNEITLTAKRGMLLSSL


What was measured:
[1] = molecular target: T1, Rad21-PK (cohesin kleisin subunit Rad21) (S. pombe); assay: co-IP; Rad21-PK IP from protein extracts of cdc10-129-arrested cells, western blot; repeated in mip1-R401G and mip1+ cells
Tor2-FLAG (S. pombe) = Tor2-FLAG (S. pombe) (UniProt Q9Y7K2); assay: co-IP; Tor2-FLAG IP from protein extracts of cycling cells (Figure 4C) and of cdc10-arrested mip1-R401G and mip1+ cells (Figure 4-figure supplement 1C), western blot

| Molecule | binding [1] | binding (Tor2-FLAG (S. pombe)) |
| --- | --- | --- |
| Tor2-FLAG (from UniProt Q9Y7K2 1-2337) | binds | – |
| Rad21-PK (cohesin kleisin subunit Rad21) (protein, UniProt P30776 1-628) MFYSEAILSKKGPLAKVWLAAHWEKKLSKVQTLHTSIEQSVHAIVTEETAPMALRLSGQLMLGVVRIYSRKARYLLEDCTEALMRLKMSFQPGQVDMIEPATALQSLKGKDAVTQSANLTLPETITEFDLLVPDSTFDFQWSQLLRTPSRSSNTLELHSLPISSSPSFPSSQLSIEAGRNAQVESGFSLGESFAHVGNDMQFHLPISNSGAATPRSVHSDNQSQISIEVGRDAPAAAATDLSGIIGPQMTKSPASSVTHFSTPSMLPIGGTSLDDELLAPVDDLNLDLGLDDLLGDEQGANAPAIEADEQAETSSIHLPSDIMEDDSSRPAAAGVEEGQVVESATAPQQEKINPQKTVRRQRAIIDPVTELSSKQMKKQLADTSSITSPLCLNTSSIVFNATVNFTRNGKFNTSIFSSNLNPKVNELLQADFKQAILRKRKNESPEEVEPAKHQRTDTSTENQETAEVLDPEEIAAAELANITEAAIATLPQETVVQPEGEAPELGSPMGFPVTALESADDSLFDAPPVMLDEADLLGSERLDSSVSEALPSSQTAKDSLRNKWDPYTEGEKVSFQTLSAGCNREEAVQLFFDVLVLATKDVISVKQDVAIQNEITLTAKRGMLLSSL | – | binds |
